PubChem BioAssay AID1259308, NCATS | 2017
Assay: 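Candidate targets for better recombinant protein yield in mammalian cells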 (primary screen). System: human HEK293 embryonic kidney cells stably expressing firefly luciferase (HEK-CMV-Luc2-Hygro). Reagent: single siRNA against human genes, 0.8 pmol siRNA per well. Time to read-out: 72 h. Detection: 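Reporter luminescence and viable-cell signal on separate replicate plates, given as percent of non-targeting control and median/MAD z-scores, plus per-cell luciferase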. Direction: total luciferase, z-score and total luciferase, % of control: higher = more reporter protein produced; luciferase per cell, z-score: higher = more reporter output per viable cell; viable cells, % of control: higher = more viable cells. Call rule: 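An siRNA counts as active if its total luciferase robust z-score exceeds 3; genes with two or more such siRNAs out of three were retested with fresh siRNAs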. Calls: active = raised luciferase; inactive = no rise.
The whole screen tested about 59,000 reagents; below is a random part of them. About 1,510 of them (2.6%) count as active. 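Calls use total luciferase alone and ignore viability, so some active siRNAs may act by altering cell number.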 Reagents against one gene are numbered here.

Gene | reagent | total luciferase, z-score | total luciferase, % of control | luciferase per cell, z-score | viable cells, % of control | call
ENHO (GeneID 375704) | 1 | 0.892 | 99.6 | 1.13 | 82.6 | inactive
ENHO (GeneID 375704) | 2 | -3.09 | 20.4 | -2.45 | 43.5 | inactive
ENHO (GeneID 375704) | 3 | -1.09 | 60.3 | -0.226 | 71.5 | inactive
HAPSTR1 (GeneID 29035) | 1 | 2.32 | 128 | 1.78 | 89.6 | inactive
HAPSTR1 (GeneID 29035) | 2 | 1.34 | 109 | 1.16 | 89.4 | inactive
HAPSTR1 (GeneID 29035) | 3 | 1.01 | 102 | 0.417 | 102 | inactive
NEFL (GeneID 4747) | 1 | 0.687 | 95.5 | 0.281 | 99.2 | inactive
NEFL (GeneID 4747) | 2 | -0.195 | 78 | 0.379 | 78.9 | inactive
NEFL (GeneID 4747) | 3 | -0.152 | 78.9 | 0.529 | 76.7 | inactive
RTTN (GeneID 25914) | 1 | 0.698 | 95.8 | 0.334 | 98 | inactive
RTTN (GeneID 25914) | 2 | -0.334 | 75.2 | -0.672 | 100 | inactive
RTTN (GeneID 25914) | 3 | -1.08 | 60.5 | -1 | 88 | inactive
WDR7 (GeneID 23335) | 1 | -0.0552 | 80.8 | -0.164 | 94.3 | inactive
WDR7 (GeneID 23335) | 2 | -2.18 | 38.6 | -0.444 | 48.5 | inactive
WDR7 (GeneID 23335) | 3 | -0.214 | 77.6 | 0.461 | 76.8 | inactive
ZNF556 (GeneID 80032) | 1 | 5.22 | 186 | 3.51 | 82.3 | active
ZNF556 (GeneID 80032) | 2 | 0.252 | 86.9 | -0.0592 | 98.6 | inactive
ZNF556 (GeneID 80032) | 3 | -0.227 | 77.4 | -0.382 | 95.6 | inactive
PML (GeneID 5371) | 1 | 2.07 | 123 | 1.42 | 94.7 | inactive
PML (GeneID 5371) | 2 | -2.75 | 27.1 | -3.92 | 85.1 | inactive
PML (GeneID 5371) | 3 | -0.897 | 64.1 | -1.42 | 104 | inactive
CERS3 (GeneID 204219) | 1 | 0.193 | 85.7 | 0.369 | 86.9 | inactive
CERS3 (GeneID 204219) | 2 | -0.887 | 64.3 | -0.306 | 77.8 | inactive
CERS3 (GeneID 204219) | 3 | 1.08 | 103 | 0.62 | 98.1 | inactive
RO60 (GeneID 6738) | 1 | -0.369 | 74.5 | -0.858 | 104 | inactive
RO60 (GeneID 6738) | 2 | -1.66 | 48.8 | -1.49 | 80.8 | inactive
RO60 (GeneID 6738) | 3 | -0.498 | 72 | -0.487 | 91.4 | inactive
AKR1C3 (GeneID 8644) | 1 | -0.651 | 68.9 | -1.06 | 102 | inactive
AKR1C3 (GeneID 8644) | 2 | 1.75 | 117 | 1.95 | 77.9 | inactive
AKR1C3 (GeneID 8644) | 3 | -0.157 | 78.8 | 1.91 | 53.2 | inactive
OR10J1 (GeneID 26476) | 1 | 0.546 | 92.8 | -0.0515 | 105 | inactive
OR10J1 (GeneID 26476) | 2 | -0.929 | 63.4 | -0.401 | 78.8 | inactive
OR10J1 (GeneID 26476) | 3 | -0.397 | 74 | -0.946 | 106 | inactive

Reprinted from the listing for reference:
Gene | reagent | total luciferase, z-score | total luciferase, % of control | luciferase per cell, z-score | viable cells, % of control | call
ENHO (GeneID 375704) | 1 | 0.892 | 99.6 | 1.13 | 82.6 | inactive
ENHO (GeneID 375704) | 2 | -3.09 | 20.4 | -2.45 | 43.5 | inactive
ENHO (GeneID 375704) | 3 | -1.09 | 60.3 | -0.226 | 71.5 | inactive
HAPSTR1 (GeneID 29035) | 1 | 2.32 | 128 | 1.78 | 89.6 | inactive
HAPSTR1 (GeneID 29035) | 2 | 1.34 | 109 | 1.16 | 89.4 | inactive
HAPSTR1 (GeneID 29035) | 3 | 1.01 | 102 | 0.417 | 102 | inactive
NEFL (GeneID 4747) | 1 | 0.687 | 95.5 | 0.281 | 99.2 | inactive
NEFL (GeneID 4747) | 2 | -0.195 | 78 | 0.379 | 78.9 | inactive

Further records follow.
Gene | reagent | total luciferase, z-score | total luciferase, % of control | luciferase per cell, z-score | viable cells, % of control | call
IFT46 (GeneID 56912) | 1 | -0.423 | 73.5 | -0.723 | 99.3 | inactive
IFT46 (GeneID 56912) | 2 | -1.79 | 46.3 | -2.2 | 92.3 | inactive
IFT46 (GeneID 56912) | 3 | -0.928 | 63.4 | -1.16 | 96.2 | inactive
SLC18A1 (GeneID 6570) | 1 | 1.27 | 107 | 0.154 | 115 | inactive
SLC18A1 (GeneID 6570) | 2 | -1.14 | 59.2 | -1.4 | 95.7 | inactive
SLC18A1 (GeneID 6570) | 3 | -0.608 | 69.8 | -0.0773 | 79.6 | inactive
NBEAL2 (GeneID 23218) | 1 | -0.231 | 77.3 | -0.777 | 106 | inactive
NBEAL2 (GeneID 23218) | 2 | 0.433 | 90.5 | 0.0153 | 101 | inactive
NBEAL2 (GeneID 23218) | 3 | -0.102 | 79.8 | -0.436 | 100 | inactive
POU5F1 (GeneID 5460) | 1 | 3.98 | 161 | 2.94 | 83 | active
POU5F1 (GeneID 5460) | 2 | 3.67 | 155 | 2.66 | 85.8 | active
POU5F1 (GeneID 5460) | 3 | 1.12 | 104 | 1.9 | 70.5 | inactive
HPF1 (GeneID 54969) | 1 | 0.208 | 86 | -0.00265 | 96.2 | inactive
HPF1 (GeneID 54969) | 2 | -1.05 | 61 | -0.48 | 77.4 | inactive
HPF1 (GeneID 54969) | 3 | 0.408 | 90 | -0.061 | 102 | inactive
PPP2R5C (GeneID 5527) | 1 | 2.52 | 132 | 2.19 | 82.9 | inactive
PPP2R5C (GeneID 5527) | 2 | -0.00636 | 81.8 | -0.391 | 101 | inactive
PPP2R5C (GeneID 5527) | 3 | 1.21 | 106 | 1.34 | 83.2 | inactive
COQ7 (GeneID 10229) | 1 | 0.083 | 83.5 | -0.146 | 97 | inactive
COQ7 (GeneID 10229) | 2 | 1.81 | 118 | 1.73 | 83.5 | inactive
COQ7 (GeneID 10229) | 3 | 0.234 | 86.5 | 0.174 | 92.4 | inactive
PRTN3 (GeneID 5657) | 1 | -0.0663 | 80.6 | -0.102 | 92.5 | inactive
PRTN3 (GeneID 5657) | 2 | -1.88 | 44.5 | 1.67 | 32 | inactive
PRTN3 (GeneID 5657) | 3 | 3.56 | 153 | 2.33 | 92.5 | active
